No constants are given. Whether binding was seen depends on the method and setting. Some binding calls cover weakened binding; strength is not graded here. Tags and fused reporters may be left off the sequences shown. Each block holds one binder with its values, some of them ahead of it.
Legend:
Test in all cases: two-hybrid; LexA/AD system in yeast strain EGY48 plus H18; SD/-Ura/-Trp/-His, then raffinose, galactose and X-gal for blue color development
[1] = target: T1, SMXL8 (yeast two-hybrid fusion) (Arabidopsis thaliana) (UniProt F4IGZ2)
T1 sequence: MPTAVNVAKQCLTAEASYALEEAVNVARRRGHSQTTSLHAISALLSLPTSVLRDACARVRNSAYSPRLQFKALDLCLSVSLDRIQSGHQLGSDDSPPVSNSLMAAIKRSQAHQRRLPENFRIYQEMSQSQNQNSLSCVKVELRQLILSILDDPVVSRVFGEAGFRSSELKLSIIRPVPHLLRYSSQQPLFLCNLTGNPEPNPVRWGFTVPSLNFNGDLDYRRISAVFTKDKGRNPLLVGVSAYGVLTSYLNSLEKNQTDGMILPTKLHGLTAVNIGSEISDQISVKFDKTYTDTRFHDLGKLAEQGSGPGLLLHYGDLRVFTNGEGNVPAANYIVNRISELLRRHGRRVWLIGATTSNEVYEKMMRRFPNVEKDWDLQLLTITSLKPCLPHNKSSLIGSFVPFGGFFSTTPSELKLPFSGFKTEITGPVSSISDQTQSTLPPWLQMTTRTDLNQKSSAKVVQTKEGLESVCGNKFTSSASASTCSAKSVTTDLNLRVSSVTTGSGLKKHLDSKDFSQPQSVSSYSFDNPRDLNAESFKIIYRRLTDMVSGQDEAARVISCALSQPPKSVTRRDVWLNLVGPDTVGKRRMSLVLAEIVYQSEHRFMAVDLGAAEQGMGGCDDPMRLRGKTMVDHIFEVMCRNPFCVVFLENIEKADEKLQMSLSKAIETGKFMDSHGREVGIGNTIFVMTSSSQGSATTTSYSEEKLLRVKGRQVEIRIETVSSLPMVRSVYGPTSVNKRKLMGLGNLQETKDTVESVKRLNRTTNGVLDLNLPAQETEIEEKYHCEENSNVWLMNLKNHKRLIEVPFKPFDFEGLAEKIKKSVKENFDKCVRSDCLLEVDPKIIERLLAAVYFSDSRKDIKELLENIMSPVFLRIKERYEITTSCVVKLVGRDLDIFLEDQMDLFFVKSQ

[2] = target: T2, BRC1 (yeast two-hybrid fusion) (Arabidopsis thaliana) (UniProt A1YKT1)
T2 sequence: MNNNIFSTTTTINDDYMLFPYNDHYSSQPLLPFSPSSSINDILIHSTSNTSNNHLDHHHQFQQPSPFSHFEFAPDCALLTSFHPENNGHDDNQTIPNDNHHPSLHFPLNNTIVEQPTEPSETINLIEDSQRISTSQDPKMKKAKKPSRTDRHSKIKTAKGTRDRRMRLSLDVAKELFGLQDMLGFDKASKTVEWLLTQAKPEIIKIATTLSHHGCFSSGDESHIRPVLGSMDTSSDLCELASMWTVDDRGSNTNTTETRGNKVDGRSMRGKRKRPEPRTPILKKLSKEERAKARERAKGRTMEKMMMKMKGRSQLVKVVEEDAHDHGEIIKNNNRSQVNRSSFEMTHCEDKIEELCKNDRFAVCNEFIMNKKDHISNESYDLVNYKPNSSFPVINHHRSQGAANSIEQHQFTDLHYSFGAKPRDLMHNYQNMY

[3] = target: T3, SMXL7 (yeast two-hybrid fusion) (Arabidopsis thaliana) (UniProt O80875)
T3 sequence: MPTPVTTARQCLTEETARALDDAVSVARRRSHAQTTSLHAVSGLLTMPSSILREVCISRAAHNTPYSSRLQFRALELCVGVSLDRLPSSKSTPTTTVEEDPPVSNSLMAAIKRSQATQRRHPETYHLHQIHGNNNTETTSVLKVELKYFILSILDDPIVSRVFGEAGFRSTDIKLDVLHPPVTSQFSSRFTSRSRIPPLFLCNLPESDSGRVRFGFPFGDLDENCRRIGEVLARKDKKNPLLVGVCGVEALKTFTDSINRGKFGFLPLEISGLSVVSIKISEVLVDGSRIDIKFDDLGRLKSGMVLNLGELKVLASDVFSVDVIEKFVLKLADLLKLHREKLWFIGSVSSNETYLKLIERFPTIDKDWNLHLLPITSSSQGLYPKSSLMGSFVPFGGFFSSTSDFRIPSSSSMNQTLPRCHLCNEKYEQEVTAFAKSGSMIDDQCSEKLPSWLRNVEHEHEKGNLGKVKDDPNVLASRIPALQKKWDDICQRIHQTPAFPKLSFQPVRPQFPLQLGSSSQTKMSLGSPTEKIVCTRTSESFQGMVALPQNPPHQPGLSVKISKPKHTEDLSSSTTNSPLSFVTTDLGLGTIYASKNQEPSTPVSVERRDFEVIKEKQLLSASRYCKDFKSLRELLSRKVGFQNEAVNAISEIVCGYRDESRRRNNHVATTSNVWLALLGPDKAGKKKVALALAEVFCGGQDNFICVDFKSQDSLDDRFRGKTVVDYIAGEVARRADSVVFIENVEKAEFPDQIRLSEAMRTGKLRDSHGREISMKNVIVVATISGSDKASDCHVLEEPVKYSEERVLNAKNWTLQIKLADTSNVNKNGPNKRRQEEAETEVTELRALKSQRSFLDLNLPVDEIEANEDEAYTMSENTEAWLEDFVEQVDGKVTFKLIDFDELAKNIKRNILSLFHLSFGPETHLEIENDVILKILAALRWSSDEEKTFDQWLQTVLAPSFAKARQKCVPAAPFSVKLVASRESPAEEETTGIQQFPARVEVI

[4] = target: T4, SPL15 (yeast two-hybrid fusion) (Arabidopsis thaliana) (UniProt Q9M2Q6)
T4 sequence: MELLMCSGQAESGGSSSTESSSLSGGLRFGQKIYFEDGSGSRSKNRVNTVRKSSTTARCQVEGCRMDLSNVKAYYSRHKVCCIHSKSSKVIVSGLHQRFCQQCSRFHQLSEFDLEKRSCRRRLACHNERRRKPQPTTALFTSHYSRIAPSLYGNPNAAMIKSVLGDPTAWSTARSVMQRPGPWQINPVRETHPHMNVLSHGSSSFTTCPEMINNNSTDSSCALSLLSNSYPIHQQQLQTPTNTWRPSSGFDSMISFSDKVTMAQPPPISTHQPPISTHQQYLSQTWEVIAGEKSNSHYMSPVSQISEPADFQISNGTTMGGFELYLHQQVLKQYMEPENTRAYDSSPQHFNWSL

- binding [1]: no binding
- binding [2]: no binding
- binding [3]: no binding
- binding [4]: binds
B1: FHY3 (yeast two-hybrid fusion) (protein, UniProt Q9LIE5 1-839)
chain: MDIDLRLHSGDLCKGDDEDRGLDNVLHNEEDMDIGKIEDVSVEVNTDDSVGMGVPTGELVEYTEGMNLEPLNGMEFESHGEAYSFYQEYSRAMGFNTAIQNSRRSKTTREFIDAKFACSRYGTKREYDKSFNRPRARQSKQDPENMAGRRTCAKTDCKASMHVKRRPDGKWVIHSFVREHNHELLPAQAVSEQTRKIYAAMAKQFAEYKTVISLKSDSKSSFEKGRTLSVETGDFKILLDFLSRMQSLNSNFFYAVDLGDDQRVKNVFWVDAKSRHNYGSFCDVVSLDTTYVRNKYKMPLAIFVGVNQHYQYMVLGCALISDESAATYSWLMETWLRAIGGQAPKVLITELDVVMNSIVPEIFPNTRHCLFLWHVLMKVSENLGQVVKQHDNFMPKFEKCIYKSGKDEDFARKWYKNLARFGLKDDQWMISLYEDRKKWAPTYMTDVLLAGMSTSQRADSINAFFDKYMHKKTSVQEFVKVYDTVLQDRCEEEAKADSEMWNKQPAMKSPSPFEKSVSEVYTPAVFKKFQIEVLGAIACSPREENRDATCSTFRVQDFENNQDFMVTWNQTKAEVSCICRLFEYKGYLCRHTLNVLQCCHLSSIPSQYILKRWTKDAKSRHFSGEPQQLQTRLLRYNDLCERALKLNEEASLSQESYNIAFLAIEGAIGNCAGINTSGRSLPDVVTSPTQGLISVEEDNHSRSAGKTSKKKNPTKKRKVNPEQDVMPVAAPESLQQMDKLSPRTVGIESYYGTQQSVQGMVQLNLMGPTRDNFYGNQQTMQGLRQLNSIAPSYDSYYGPQQGIHGQGVDFFRPANFSYDIRDDPNVRTTQLHEDASRHS

- binding [1]: no binding
- binding [2]: no binding
- binding [3]: no binding
- binding [4]: binds
B2: FAR1 (yeast two-hybrid fusion) (protein, UniProt Q9SWG3 1-827)
chain: MDLQENLVSDAGDDHMVDIVVEPHSNRDIGIVDEFNIGGDVGFSGDLDLEPRNGIDFDTHEAAYIFYQEYAKSMGFTTSIKNSRRSKKTKDFIDAKFACSRYGVTPESESSGSSSRRSTVKKTDCKASMHVKRRPDGKWIIHEFVKDHNHELLPALAYHFRIQRNVKLAEKNNIDILHAVSERTKKMYVEMSRQSGGYKNIGSLLQTDVSSQVDKGRYLALEEGDSQVLLEYFKRIKKENPKFFYAIDLNEDQRLRNLFWADAKSRDDYLSFNDVVSFDTTYVKFNDKLPLALFIGVNHHSQPMLLGCALVADESMETFVWLIKTWLRAMGGRAPKVILTDQDKFLMSAVSELLPNTRHCFALWHVLEKIPEYFSHVMKRHENFLLKFNKCIFRSWTDDEFDMRWWKMVSQFGLENDEWLLWLHEHRQKWVPTFMSDVFLAGMSTSQRSESVNSFFDKYIHKKITLKEFLRQYGVILQNRYEEESVADFDTCHKQPALKSPSPWEKQMATTYTHTIFKKFQVEVLGVVACHPRKEKEDENMATFRVQDCEKDDDFLVTWSKTKSELCCFCRMFEYKGFLCRHALMILQMCGFASIPPQYILKRWTKDAKSGVLAGEGADQIQTRVQRYNDLCSRATELSEEGCVSEENYNIALRTLVETLKNCVDMNNARNNITESNSQLNNGTHEEENQVMAGVKATKKKTVYRKRKGQQEASQMLESQQSLQPMETISSEAMDMNGYYGPQQNVQGLLNLMEPPHEGYYVDQRTIQGLGQLNSIAPAQDSFFTNQQAMSGMVGQIDFRPPPNFTYTLQEEHLSSAQLPGSSSRQL
